In paper PMC9649694:
These are yes or no findings as the source states them, for the method shown. In cells and extracts the contact can be indirect. Binding calls can cover weak binding; strength is not graded here.

The chains behind the UniProt entries cited, without tags or fusion partners. Where a name states a change or a piece, a line headed by the entry shows the natural chain unless it says otherwise.
UniProt Q9H1Y0: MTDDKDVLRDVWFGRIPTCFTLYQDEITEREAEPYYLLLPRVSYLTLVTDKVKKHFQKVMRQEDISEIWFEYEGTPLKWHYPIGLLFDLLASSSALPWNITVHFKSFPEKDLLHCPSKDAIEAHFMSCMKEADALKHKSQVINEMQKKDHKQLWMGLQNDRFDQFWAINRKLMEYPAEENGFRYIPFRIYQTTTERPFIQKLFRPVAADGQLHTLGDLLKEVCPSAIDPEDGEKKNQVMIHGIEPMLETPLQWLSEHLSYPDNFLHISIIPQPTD
UniProt P28074: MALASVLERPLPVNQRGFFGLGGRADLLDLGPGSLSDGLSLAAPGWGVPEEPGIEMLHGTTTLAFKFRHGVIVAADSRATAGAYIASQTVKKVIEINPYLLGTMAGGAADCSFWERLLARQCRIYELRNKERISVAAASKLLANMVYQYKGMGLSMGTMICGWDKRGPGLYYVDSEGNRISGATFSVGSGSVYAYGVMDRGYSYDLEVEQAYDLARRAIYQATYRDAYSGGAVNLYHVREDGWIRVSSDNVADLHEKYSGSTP

Target: ATG5 (experiment of Fig. S1C) (UniProt Q9H1Y0)
Test: co-IP; Fig. S1C; upon mitochondrial depolarization; cells, constructs and precipitating antibody not stated in the text shown

PSMB5 (experiment of Fig. S1C) (from UniProt P28074)
binding: binds
